Some of the results follow.

Sequences of proteins named here, by UniProt entry; tags and fusion partners are left off. A change or cut given only in a name is not applied to a line headed by its entry.
UniProt Q9UBW8: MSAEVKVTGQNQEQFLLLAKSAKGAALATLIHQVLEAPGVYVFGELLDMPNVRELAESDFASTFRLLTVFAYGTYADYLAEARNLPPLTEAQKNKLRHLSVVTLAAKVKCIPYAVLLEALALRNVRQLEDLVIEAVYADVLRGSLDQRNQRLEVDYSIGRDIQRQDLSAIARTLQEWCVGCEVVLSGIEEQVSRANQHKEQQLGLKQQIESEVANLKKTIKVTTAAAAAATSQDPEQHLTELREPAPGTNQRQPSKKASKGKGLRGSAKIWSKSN
UniProt P15954, whole entry, looked up: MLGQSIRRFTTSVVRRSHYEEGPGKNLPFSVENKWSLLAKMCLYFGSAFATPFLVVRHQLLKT
UniProt P24311, whole entry, looked up: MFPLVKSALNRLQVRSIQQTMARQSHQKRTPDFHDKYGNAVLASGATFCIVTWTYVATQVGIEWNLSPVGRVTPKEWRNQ
UniProt Q7Z4G1, whole entry, looked up: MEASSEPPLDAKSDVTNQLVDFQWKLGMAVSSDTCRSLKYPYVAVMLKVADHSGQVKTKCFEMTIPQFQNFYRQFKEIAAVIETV
UniProt Q9UJA2: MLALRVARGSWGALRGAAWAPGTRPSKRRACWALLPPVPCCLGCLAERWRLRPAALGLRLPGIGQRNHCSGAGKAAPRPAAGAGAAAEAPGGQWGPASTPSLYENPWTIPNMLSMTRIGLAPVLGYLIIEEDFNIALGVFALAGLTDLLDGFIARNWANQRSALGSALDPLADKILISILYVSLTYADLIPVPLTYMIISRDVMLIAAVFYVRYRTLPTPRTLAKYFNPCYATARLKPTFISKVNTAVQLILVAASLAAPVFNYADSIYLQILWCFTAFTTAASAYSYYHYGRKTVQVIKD
UniProt P02461, whole entry, looked up: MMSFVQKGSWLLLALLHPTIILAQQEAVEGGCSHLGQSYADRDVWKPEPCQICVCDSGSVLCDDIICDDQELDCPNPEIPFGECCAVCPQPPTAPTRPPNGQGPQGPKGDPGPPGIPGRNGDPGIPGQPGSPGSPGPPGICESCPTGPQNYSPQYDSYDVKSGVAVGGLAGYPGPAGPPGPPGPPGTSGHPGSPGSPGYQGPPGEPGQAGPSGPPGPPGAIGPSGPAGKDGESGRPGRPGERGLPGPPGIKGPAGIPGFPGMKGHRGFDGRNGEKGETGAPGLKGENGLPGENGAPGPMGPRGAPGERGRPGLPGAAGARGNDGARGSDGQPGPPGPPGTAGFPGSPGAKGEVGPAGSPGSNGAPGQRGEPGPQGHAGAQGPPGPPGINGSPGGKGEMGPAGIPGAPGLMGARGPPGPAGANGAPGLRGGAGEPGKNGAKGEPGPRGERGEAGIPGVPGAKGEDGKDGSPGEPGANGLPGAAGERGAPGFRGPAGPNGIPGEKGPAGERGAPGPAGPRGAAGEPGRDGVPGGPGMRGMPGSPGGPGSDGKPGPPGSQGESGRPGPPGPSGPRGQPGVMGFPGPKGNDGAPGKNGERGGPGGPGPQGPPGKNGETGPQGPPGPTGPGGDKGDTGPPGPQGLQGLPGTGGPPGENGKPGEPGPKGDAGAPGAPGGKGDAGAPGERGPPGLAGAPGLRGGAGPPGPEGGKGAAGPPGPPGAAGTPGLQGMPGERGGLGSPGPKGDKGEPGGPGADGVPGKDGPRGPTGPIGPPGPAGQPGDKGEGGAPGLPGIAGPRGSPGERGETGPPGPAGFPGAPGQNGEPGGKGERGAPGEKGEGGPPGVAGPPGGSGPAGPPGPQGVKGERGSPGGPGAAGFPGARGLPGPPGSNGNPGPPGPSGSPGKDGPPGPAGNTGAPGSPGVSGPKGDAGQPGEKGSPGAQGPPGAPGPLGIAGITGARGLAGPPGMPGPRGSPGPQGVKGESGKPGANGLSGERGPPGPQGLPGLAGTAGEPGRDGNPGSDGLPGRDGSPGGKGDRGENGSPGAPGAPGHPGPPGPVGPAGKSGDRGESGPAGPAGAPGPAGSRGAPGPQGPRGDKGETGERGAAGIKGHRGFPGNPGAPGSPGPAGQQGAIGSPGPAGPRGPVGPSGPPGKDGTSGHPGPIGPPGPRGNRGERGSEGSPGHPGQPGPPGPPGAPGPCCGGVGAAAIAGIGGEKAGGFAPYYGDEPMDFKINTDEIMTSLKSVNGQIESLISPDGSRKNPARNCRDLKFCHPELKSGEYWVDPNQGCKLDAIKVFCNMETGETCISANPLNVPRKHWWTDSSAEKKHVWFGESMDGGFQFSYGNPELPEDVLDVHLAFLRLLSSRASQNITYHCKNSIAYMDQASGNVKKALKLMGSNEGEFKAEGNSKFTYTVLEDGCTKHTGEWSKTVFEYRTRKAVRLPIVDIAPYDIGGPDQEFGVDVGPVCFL
UniProt P61923: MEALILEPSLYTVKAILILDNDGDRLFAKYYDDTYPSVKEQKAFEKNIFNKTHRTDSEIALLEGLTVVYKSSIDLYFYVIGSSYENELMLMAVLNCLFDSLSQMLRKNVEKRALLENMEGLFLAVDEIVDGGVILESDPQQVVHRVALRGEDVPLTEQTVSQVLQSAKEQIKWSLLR
UniProt Q9Y2Z9: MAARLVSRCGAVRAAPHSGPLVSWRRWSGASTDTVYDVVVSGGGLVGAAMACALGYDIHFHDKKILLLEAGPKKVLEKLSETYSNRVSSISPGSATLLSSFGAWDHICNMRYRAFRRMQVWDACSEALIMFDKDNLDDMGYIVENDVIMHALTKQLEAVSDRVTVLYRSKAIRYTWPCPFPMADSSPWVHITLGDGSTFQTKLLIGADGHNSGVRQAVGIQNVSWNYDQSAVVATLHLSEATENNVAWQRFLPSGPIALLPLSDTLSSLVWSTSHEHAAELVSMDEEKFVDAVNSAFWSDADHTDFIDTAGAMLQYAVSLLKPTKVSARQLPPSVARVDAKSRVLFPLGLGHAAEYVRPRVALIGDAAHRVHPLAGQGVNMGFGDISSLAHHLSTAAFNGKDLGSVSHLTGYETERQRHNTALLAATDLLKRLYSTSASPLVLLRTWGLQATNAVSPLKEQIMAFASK
UniProt P02458, whole entry, looked up: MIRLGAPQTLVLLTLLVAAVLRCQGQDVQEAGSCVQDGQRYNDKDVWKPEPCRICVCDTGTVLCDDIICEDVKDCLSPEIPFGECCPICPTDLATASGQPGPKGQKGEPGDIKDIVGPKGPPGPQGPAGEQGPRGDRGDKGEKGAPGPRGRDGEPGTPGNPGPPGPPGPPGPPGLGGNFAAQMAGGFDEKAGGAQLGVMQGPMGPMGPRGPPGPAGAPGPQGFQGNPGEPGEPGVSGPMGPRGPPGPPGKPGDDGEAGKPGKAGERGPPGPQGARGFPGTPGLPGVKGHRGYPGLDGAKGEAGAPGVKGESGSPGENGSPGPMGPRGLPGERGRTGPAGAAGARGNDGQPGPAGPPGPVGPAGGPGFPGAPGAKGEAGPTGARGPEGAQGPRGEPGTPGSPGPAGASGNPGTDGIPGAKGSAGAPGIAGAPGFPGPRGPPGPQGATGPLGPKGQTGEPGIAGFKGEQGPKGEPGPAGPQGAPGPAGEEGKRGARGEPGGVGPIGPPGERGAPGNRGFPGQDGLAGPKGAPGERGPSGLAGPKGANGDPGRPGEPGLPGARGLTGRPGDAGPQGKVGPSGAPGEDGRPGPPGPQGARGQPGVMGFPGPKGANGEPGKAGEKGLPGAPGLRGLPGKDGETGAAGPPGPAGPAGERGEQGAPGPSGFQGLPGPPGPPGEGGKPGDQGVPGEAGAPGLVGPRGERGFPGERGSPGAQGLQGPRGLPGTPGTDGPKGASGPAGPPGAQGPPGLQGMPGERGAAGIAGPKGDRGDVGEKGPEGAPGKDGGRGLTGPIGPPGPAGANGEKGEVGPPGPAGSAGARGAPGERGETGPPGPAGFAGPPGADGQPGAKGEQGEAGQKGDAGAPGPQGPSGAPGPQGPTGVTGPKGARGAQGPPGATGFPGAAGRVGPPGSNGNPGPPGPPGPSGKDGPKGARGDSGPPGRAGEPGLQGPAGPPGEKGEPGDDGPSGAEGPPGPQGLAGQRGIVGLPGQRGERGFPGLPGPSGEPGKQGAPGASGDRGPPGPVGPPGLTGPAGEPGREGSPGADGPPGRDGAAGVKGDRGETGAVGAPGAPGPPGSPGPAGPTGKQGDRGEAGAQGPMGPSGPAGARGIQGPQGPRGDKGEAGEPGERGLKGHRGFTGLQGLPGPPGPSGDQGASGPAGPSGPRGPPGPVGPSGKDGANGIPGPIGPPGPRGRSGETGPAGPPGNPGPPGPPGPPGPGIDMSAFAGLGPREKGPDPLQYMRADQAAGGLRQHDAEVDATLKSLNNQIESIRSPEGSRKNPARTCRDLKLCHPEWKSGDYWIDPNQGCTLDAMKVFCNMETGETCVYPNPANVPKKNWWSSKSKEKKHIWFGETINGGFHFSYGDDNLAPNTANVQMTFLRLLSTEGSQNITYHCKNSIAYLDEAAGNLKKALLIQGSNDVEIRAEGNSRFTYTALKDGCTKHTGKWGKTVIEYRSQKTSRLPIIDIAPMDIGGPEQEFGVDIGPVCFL
UniProt Q8N668, whole entry, looked up: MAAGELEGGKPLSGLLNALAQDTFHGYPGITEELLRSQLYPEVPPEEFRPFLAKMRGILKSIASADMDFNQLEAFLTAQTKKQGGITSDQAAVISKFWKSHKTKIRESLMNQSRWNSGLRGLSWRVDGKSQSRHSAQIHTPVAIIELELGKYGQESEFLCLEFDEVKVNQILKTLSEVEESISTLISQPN
UniProt Q14061: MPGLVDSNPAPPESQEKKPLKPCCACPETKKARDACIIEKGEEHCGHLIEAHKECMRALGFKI
UniProt P78560: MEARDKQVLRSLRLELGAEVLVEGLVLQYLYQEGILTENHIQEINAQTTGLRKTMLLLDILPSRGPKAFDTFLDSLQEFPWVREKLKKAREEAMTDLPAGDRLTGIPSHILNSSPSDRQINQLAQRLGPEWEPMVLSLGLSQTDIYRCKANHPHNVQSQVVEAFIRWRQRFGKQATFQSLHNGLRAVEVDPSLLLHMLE
UniProt O75718: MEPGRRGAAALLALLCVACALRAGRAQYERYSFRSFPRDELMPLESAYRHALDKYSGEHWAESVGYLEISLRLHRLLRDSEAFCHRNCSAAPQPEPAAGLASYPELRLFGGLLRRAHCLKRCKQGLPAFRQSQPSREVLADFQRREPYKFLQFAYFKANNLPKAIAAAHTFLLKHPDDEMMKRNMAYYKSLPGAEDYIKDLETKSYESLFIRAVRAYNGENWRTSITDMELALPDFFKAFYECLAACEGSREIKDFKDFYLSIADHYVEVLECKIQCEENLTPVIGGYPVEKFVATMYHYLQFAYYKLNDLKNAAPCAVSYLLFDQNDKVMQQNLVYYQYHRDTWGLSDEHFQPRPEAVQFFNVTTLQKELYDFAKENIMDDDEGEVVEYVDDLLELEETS
UniProt Q9HCH3: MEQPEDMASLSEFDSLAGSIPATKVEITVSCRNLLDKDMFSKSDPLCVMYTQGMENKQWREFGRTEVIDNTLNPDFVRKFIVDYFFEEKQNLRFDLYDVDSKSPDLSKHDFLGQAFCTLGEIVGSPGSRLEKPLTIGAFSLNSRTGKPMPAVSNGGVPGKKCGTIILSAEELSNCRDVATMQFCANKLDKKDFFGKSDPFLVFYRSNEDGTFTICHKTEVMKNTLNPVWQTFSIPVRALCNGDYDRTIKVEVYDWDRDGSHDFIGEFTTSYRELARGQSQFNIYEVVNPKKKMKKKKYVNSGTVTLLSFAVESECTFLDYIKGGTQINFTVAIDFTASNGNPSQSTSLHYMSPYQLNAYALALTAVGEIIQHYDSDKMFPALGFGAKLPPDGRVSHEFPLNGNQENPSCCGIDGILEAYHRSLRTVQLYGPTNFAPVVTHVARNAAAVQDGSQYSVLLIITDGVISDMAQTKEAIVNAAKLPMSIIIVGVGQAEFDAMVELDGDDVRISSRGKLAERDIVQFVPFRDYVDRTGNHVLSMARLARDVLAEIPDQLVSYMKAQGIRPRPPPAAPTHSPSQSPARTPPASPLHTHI
UniProt P43155: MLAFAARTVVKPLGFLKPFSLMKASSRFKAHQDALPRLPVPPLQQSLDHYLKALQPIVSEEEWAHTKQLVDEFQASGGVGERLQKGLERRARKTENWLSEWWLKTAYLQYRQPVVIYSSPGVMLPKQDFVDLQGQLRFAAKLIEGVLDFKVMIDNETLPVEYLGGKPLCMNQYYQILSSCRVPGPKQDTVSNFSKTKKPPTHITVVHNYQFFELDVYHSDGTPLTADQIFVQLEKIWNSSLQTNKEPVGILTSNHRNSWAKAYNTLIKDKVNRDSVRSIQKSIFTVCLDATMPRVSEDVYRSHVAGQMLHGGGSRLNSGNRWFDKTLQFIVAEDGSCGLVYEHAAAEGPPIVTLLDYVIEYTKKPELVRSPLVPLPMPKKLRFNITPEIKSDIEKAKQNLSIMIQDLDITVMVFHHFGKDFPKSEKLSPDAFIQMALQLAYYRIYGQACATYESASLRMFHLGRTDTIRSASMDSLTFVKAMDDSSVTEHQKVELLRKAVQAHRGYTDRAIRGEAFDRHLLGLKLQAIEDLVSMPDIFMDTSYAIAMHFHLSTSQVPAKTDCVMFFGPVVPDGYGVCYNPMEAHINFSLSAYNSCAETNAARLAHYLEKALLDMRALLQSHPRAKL
UniProt Q96I36: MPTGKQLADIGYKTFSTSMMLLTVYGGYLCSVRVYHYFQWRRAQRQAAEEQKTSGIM

Compound in one assay: CC1=C2C(=CC=C1)N=C(N(C2=O)C3=CC=CC=C3C)CN4C=NC5=C(N=CN=C54)N
Nature of the assay: log2 fold change, soluble protein after heating vs DMSO (PISA); higher = thermal stabilisation; K562 cells, 10 uM, 30 min; active = over 0.2 and 3.5 SD of the protein, either way, in both replicates (recomputed). Put shortly: (§1)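 Soluble protein was quantified by TMTpro 16plex LC-MS/MS after channel sums were equalised. It was obtained as the supernatant after 21,000xg for 90 min from pooled aliquots of K562 cells (2×10^6 cells/mL, 10 μM compound, 30 min) heated for 3 min across 48°C-58°C and extracted in PBS with 0.5% NP-40 at 4°C. Thermal stability values are relative to control samples and come from duplicates. They are given as log2 fold changes.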
For the target CORO6 isoform 5 (UniProt Q6QEF8), the log2 fold change is inactive: 0.192.

Take COPS7A (UniProt Q9UBW8): the log2 fold change is inactive: 0.036.

For the target COX7C (UniProt P15954), the log2 fold change was inactive: -0.073.

For CPSF2 (UniProt Q9P2I0), the log2 fold change is inactive: 0.013.

As to COX7B (UniProt P24311), the log2 fold change is inactive: 0.063.

Turning to CRY1 (UniProt Q16526), the log2 fold change was inactive: 0.228.

Take COMMD6 isoform 2 (UniProt Q7Z4G1): the log2 fold change is inactive: 0.093.

For CRLS1 (UniProt Q9UJA2), the log2 fold change is inactive: -0.034.

In the case of COL3A1 (UniProt P02461), the log2 fold change is inactive: -0.341.

As for COPZ1 isoform 4 (UniProt P61923), the log2 fold change was inactive: 0.014.

Consider CRY2 (UniProt Q49AN0), for which the log2 fold change is inactive: 0.122.

In the case of COQ6 (UniProt Q9Y2Z9), the log2 fold change was inactive: -0.022.

Regarding COLEC11 isoform 10 (UniProt Q9BWP8), the log2 fold change was inactive: 0.007.

Regarding COL2A1 (UniProt P02458), the log2 fold change is inactive: 0.193.

For the target CRABP1 (UniProt P29762), the log2 fold change is inactive: -0.672.

On to COMMD1 (UniProt Q8N668), for which the log2 fold change is inactive: 0.007.

With CRTC2 (UniProt Q53ET0), the log2 fold change is inactive: -0.075.

Turning to CPA4 (UniProt Q9UI42), the log2 fold change is inactive: -0.501.

COX17 (UniProt Q14061): the log2 fold change is inactive: 0.022.

Consider CRADD (UniProt P78560), for which the log2 fold change was inactive: 0.248.

On to CPLX1 (UniProt O14810), for which the log2 fold change was inactive: 0.067.

On to COPS3 isoform 2 (UniProt Q9UNS2), for which the log2 fold change was inactive: 0.2.

As for CPN1 (UniProt P15169), the log2 fold change is inactive: 0.095.

Regarding CRTAP (UniProt O75718), the log2 fold change is inactive: 0.079.

Regarding CRYAB (UniProt P02511), the log2 fold change is inactive: 0.221.

Take CRTC1 isoform 2 (UniProt Q6UUV9): the log2 fold change is inactive: 0.018.

Compound in the next assay: Cc1sc2c(c1C)C(c1ccc(Cl)cc1)=N[C@@H](CC(=O)OC(C)(C)C)c1nnc(C)n1-2
The description is as above. Put shortly: as §1
For the target CORO6 isoform 5 (UniProt Q6QEF8), the log2 fold change was inactive: 0.03.

For COPS7A (UniProt Q9UBW8), the log2 fold change is inactive: 0.001.

COX7C (UniProt P15954): the log2 fold change is inactive: -0.079.

Regarding CSNK1G2 (UniProt P78368), the log2 fold change is inactive: -0.013.

For the target COMP (UniProt P49747), the log2 fold change is inactive: -0.135.

In the case of CPSF2 (UniProt Q9P2I0), the log2 fold change was inactive: 0.101.

As to COX7B (UniProt P24311), the log2 fold change is inactive: -0.018.

On to CRLS1 (UniProt Q9UJA2), for which the log2 fold change was inactive: -0.01.

Take COMMD8 (UniProt Q9NX08): the log2 fold change is inactive: -0.139.

COMMD3-BMI1 (UniProt R4GMX3): the log2 fold change was inactive: 0.002.

In the case of COL3A1 (UniProt P02461), the log2 fold change was inactive: 0.05.

With COPZ1 isoform 4 (UniProt P61923), the log2 fold change was inactive: -0.153.

Turning to CPNE5 (UniProt Q9HCH3), the log2 fold change is inactive: 0.146.

With CRY2 (UniProt Q49AN0), the log2 fold change is inactive: -0.052.

Consider CRYM (UniProt Q14894), for which the log2 fold change was inactive: -0.33.

In the case of COQ6 (UniProt Q9Y2Z9), the log2 fold change is inactive: -0.017.

Turning to COL2A1 (UniProt P02458), the log2 fold change is inactive: -0.049.

Consider CRCP (UniProt O75575), for which the log2 fold change was inactive: -0.032.

In the case of COMMD1 (UniProt Q8N668), the log2 fold change was inactive: 0.162.

For CRTC2 (UniProt Q53ET0), the log2 fold change is inactive: 0.052.

Take CPA4 (UniProt Q9UI42): the log2 fold change is inactive: -0.081.

Regarding COX17 (UniProt Q14061), the log2 fold change was inactive: -0.073.

As for CRADD (UniProt P78560), the log2 fold change was inactive: -0.092.

In the case of COPS3 isoform 2 (UniProt Q9UNS2), the log2 fold change was inactive: 0.04.

With CPN1 (UniProt P15169), the log2 fold change is inactive: -0.178.

In the case of CRTAP (UniProt O75718), the log2 fold change was inactive: -0.013.

In the case of CRTC1 isoform 2 (UniProt Q6UUV9), the log2 fold change is inactive: 0.046.

Compound in another assay: c1ccc([C@@H]2C[C@H]2NC2CCNCC2)cc1
The description is as above. Put shortly:
as §1
On to COPS7A (UniProt Q9UBW8), for which the log2 fold change is inactive: -0.007.

With COMP (UniProt P49747), the log2 fold change is inactive: 0.134.

For CSGALNACT2 (UniProt Q8N6G5), the log2 fold change is inactive: 0.068.

Regarding COP1 (UniProt Q8NHY2), the log2 fold change was inactive: -0.102.

In the case of COX7B (UniProt P24311), the log2 fold change was inactive: 0.018.

Turning to CRAT (UniProt P43155), the log2 fold change was inactive: -0.259.

On to COQ10B (UniProt Q9H8M1), for which the log2 fold change is inactive: -0.006.

Regarding CRLS1 (UniProt Q9UJA2), the log2 fold change is inactive: 0.003.

In the case of COMMD8 (UniProt Q9NX08), the log2 fold change was inactive: -0.059.

As to COMMD3-BMI1 (UniProt R4GMX3), the log2 fold change was inactive: 0.154.

For the target COL3A1 (UniProt P02461), the log2 fold change was inactive: 0.121.

As to COPZ1 isoform 4 (UniProt P61923), the log2 fold change is inactive: -0.083.

Take CPNE5 (UniProt Q9HCH3): the log2 fold change is inactive: -0.035.

For CRYM (UniProt Q14894), the log2 fold change was inactive: 0.084.

Take COQ6 (UniProt Q9Y2Z9): the log2 fold change is inactive: -0.032.

Regarding COLEC11 isoform 10 (UniProt Q9BWP8), the log2 fold change is inactive: -0.035.

Regarding COL2A1 (UniProt P02458), the log2 fold change is inactive: 0.079.

Take CRCP (UniProt O75575): the log2 fold change is inactive: -0.071.

On to COX17 (UniProt Q14061), for which the log2 fold change was inactive: -0.085.

CRADD (UniProt P78560): the log2 fold change was inactive: 0.193.

In the case of CRTAP (UniProt O75718), the log2 fold change was inactive: -0.037.

CRYAB (UniProt P02511): the log2 fold change is inactive: -0.016.

Take COX14 (UniProt Q96I36): the log2 fold change was inactive: -0.049.

For the origin of these results see the supplement of paper PMC10849652.
